# Laboratory results published in PubChem BioAssay AID1625 (Sanford-Burnham Center for Chemical Genomics, 2009).
# Values joined by “and” are separate entries in the source; they are usually repeats but may differ in a detail not shown here. Identical values can stand only once. The campaign covered roughly 190,000 compounds. About 570 (0.3%) were called active. The shares of active, inactive and inconclusive entries below differ from those in the screen.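 How the source made its calls: active means z-score above 3 at 5 µM with at least 500 cells counted in the well; inconclusive means wells under 500 cells, flagged as cytotoxic or low count; inactive means the rest.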
# Experiment: up-regulation of insulin promoter-GFP reporter – imaging, high-content screening, mouse beta cells (AID 1625)
# Conditions: MIN6 insulin promoter-GFP reporter, at 5 µM, stronger effect = higher value
row,SMILES,z-score
1,CNc1nc2cc([N+](=O)[O-])c([N+](=O)[O-])cc2nc1NC,inconclusive: -2.15
2,CC(C)C(=O)Nc1ccc(C(=O)N2CCCCCC2)cc1,inconclusive: -2.19
3,CCOC(=O)N1CCN(C(=O)CSCc2ccccc2Cl)CC1,inconclusive: -3.82
4,CN(Cc1ccccc1)C1=CC(=[N+]2CCCCC2)CC(C)(C)C1,inconclusive: -3.56
5,N=c1c2c3c(sc2nc2n1CCCCC2)CCCCC3,inconclusive: -0.49
6,CN(C(=O)CSc1cc(C(=O)c2nccn2C)c2ccccc2n1)c1ccccc1,inconclusive: -4.34
7,Cc1[nH]c2ccccc2c1CN1CCc2ccccc2C1,inconclusive: -2.06
8,Cc1ccc(/C=C/C(=O)Nc2ccc([N+](=O)[O-])cc2)o1,inconclusive: -1.1
9,O=[N+]([O-])c1cnc(Sc2ccncn2)s1,inconclusive: 0.56
10,COc1ccc(CN(CC2CCC(C(=O)O)CC2)C(=S)Nc2cccc(C)c2)cc1 (configuration not stated),active: 3.65
11,CCOC(=O)c1cc2sc(C)cc2n1CC(=O)Nc1cccc(C)c1C,inconclusive: -3.47
12,COCCN(CCOC)Cc1cc(=O)oc2cc3c(cc12)CCC3,active: 3.14
13,Cc1c(Cl)cccc1NC(=S)NCc1ccc2c(c1)OCO2,inconclusive: -6.18
14,O=C(/C=C/c1ccc(O)cc1)c1ccc(NC2=C(N3CCCCC3)C(=O)c3ccccc3C2=O)cc1,inconclusive: -4.16
15,Cc1ccccc1NC(=O)/C=C/c1ccc([N+](=O)[O-])s1,inconclusive: 9.55
16,O=C(C1CCC(CNS(=O)(=O)c2cccc3cccnc23)CC1)N1CCc2ccccc21 (configuration not stated),inconclusive: -3.81
17,Cc1ccc(-n2nc(C)c(NC(=O)CCl)c2C)cc1C,inconclusive: 1.23
18,COc1ccccc1-c1n[nH]c2c1[C@H](C)CC[C@H]2C(C)C,inconclusive: -2.35
19,c1ccc2c(c1)CSc1sccc1C2=C1CCNCC1,inconclusive: -1.54

row,SMILES,z-score
1,CSc1nnc(C)c(=O)n1COC(=O)COc1ccc(Cl)cc1Cl,inactive: -0.28
2,O=C(Sc1cccc2cccnc12)c1ccc(F)cc1,inconclusive: -3.07
3,CCN(CC)CCCC(C)Nc1c2ccc(Cl)cc2nc2ccc(OC)cc12 (configuration not stated),active: 12.4
4,Cc1nc2ccccc2n1-c1nc(-c2ccco2)cc(C(F)(F)F)n1,inconclusive: -9.35
5,Cc1ccc(S(=O)(=O)Cc2ccc(C(=O)NCCCN3CCCC3=O)o2)cc1,inconclusive: -3.02
6,CN1/C(=C\C=N\NC(=O)c2ccc(O)cc2)C(C)(C)c2ccccc21,inconclusive: -4.29
7,Cc1nc2c(-c3ccc(Cl)cc3)c(C)[nH]n2c(=O)c1Cc1ccccc1,inconclusive: -2.33
8,Brc1ccc(CSc2nnc(-c3cnccn3)n2Cc2ccco2)cc1,inactive: -0.04
9,CCCc1nnc(SCc2ccc(OCC)cc2)n1N,inconclusive: -4.16
10,Cn1cnnc1SCc1ccc(C(=O)N=Nc2c(O)n(Cc3ccc(Cl)cc3)c3ccccc23)cc1,inactive: -0.66
11,CCCCCc1ccc(OCCC[n+]2ccccc2)c(CCCCC)c1,inconclusive: -2.56
12,Cc1ccc(-c2c[n+](Cc3cccc(Cl)c3)c3n2CCC3)cc1,inconclusive: -3.79
13,Cc1[nH]c2ccccc2c1Cc1nnc(SCC(N)=O)o1,active: 4.82
14,Cc1nn(-c2ccccc2)c2c1C(O)n1c(nc3ccccc31)S2 (configuration not stated),inactive: 0.09
15,Cc1nc2ccc(S(=O)(=O)NC(C(=O)Nc3nc4ccc(Cl)cc4s3)C(C)C)cc2s1 (configuration not stated),inconclusive: -2.93
16,CCCCOc1ncnc2c1[nH]c1ccc(F)cc12,inconclusive: -3.08
17,CCCCCCCCCCCCCCCC[n+]1cccc2ccccc21,inconclusive: -3.3
18,CCc1ccc(OCC(=O)N/N=C(\C)c2ccccc2OC(F)F)cc1,inconclusive: -2.46
19,Cc1cc2cc(CN(CC3CCCO3)C(=S)Nc3ccccc3)c(=O)[nH]c2cc1C (configuration not stated),inconclusive: -1.89

row,SMILES,z-score
1,COc1ccc(C)cc1NC(=O)CSc1nnc(COc2ccc(Cl)cc2)n1Cc1ccco1,inconclusive: -2.21
2,O=C(CSc1nnc(Cn2nnc3ccccc32)o1)N(Cc1ccc(F)cc1)c1ccccc1,inconclusive: -1.2
3,CC(Sc1ccccc1)C(=O)NN=C1CCCCCC1 (configuration not stated),active: 8.07
4,CC(C)Cn1c(SCC(=O)N2CCc3ccccc3C2)nc2cc(Cl)ccc2c1=O,inconclusive: -3.74
5,O=C(COc1cccnc1[N+](=O)[O-])Nc1ccc(S(=O)(=O)N2CCOCC2)cc1,inactive: -0.77
6,CC(C)Oc1ccccc1C1CC(=O)Nc2c1c(=O)n(C)c(=O)n2C (configuration not stated),inconclusive: -2.03
7,O=C(O[C@@H]1Cc2c(O)cc(O)cc2O[C@@H]1c1cc(O)c(O)c(O)c1)c1cc(O)c(O)c(O)c1,inactive: -0.11
8,CCOC(=O)N1CCC(NC(=O)CS(=O)(=O)Cc2nc(-c3ccc(C)cc3)oc2C)CC1,inconclusive: -2.85
9,CC(=O)c1cccc(NC(=O)/C=C/c2ccc([N+](=O)[O-])s2)c1,inconclusive: 16.4
10,COc1cccc2sc(Nc3nc(-c4ccccn4)cs3)nc12,inconclusive: -1.14
11,CCCCn1c(=O)[nH]c2nc3cc(N)ccc3nc2c1=O,active: 4.83
12,Cc1ccc(SCC2(O)CCN(S(=O)(=O)c3ccc(Cl)cc3)CC2)cc1,inconclusive: -3.18
13,C=CCN(CC=C)S(=O)(=O)c1ccc(NC(=S)NC(=O)c2ccc(-c3ccccc3)cc2)cc1,inconclusive: -0.55
14,CCN1/C(=C/c2ccc3cc(C)ccc3[n+]2CC)Sc2cc(C)c(C)cc21,inconclusive: 16.5
15,Cc1ccc(N/N=C(\C#N)C(=N)N2CCOCC2)cc1,inactive: -0.72
16,CC(C)=C1C2CCC1C1C(=O)N(c3nc(-c4ccc(F)cc4)c(C)s3)C(=O)C21 (configuration not stated),inconclusive: -1.49
17,Cc1ccc(C(=O)C[n+]2cc(-c3ccccc3)n3c2CCCCC3)cc1,inconclusive: -4.17 and inconclusive: -4.44
18,CCCc1c(CC)c(=N)c2ccccc2n1C,inactive: -1.23
19,CC(C)(CNS(=O)(=O)c1ccc(Cl)cc1)N1CCCCC1,active: 3.62
